Experimental data taken from publication PMC5539180.
No constants are given. Whether binding was seen depends on the method and setting. Some results given as binding are weak or reduced against the parent protein; the word gives no strength.

Biological target: T1, SEUSS-LIKE 2 (Arabidopsis (accession Col-0)) (UniProt Q94BP0)
T1 sequence: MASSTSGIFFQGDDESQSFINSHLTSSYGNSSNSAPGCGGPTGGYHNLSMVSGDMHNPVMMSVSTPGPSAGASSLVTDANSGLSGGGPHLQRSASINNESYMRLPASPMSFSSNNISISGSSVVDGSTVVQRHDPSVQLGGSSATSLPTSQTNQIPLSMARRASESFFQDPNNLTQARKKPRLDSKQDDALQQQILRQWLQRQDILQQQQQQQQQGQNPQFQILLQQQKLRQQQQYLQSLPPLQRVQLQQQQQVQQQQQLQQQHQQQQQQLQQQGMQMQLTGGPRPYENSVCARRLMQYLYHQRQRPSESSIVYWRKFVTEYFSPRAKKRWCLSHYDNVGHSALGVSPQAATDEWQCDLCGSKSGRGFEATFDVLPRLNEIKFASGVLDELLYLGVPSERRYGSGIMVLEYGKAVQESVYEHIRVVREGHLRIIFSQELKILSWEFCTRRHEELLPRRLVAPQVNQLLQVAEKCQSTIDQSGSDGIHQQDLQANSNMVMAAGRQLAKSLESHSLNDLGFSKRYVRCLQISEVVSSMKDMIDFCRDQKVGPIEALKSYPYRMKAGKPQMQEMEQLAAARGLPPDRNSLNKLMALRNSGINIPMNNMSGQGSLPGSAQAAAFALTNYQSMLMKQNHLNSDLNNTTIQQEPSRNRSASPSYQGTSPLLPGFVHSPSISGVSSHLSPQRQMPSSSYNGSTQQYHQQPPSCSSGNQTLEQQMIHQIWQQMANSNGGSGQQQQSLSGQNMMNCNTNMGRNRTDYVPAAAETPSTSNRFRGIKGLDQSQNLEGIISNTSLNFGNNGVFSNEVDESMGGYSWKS
Assay: two-hybrid; LexA-based yeast two-hybrid; pLexA-DBD fusions in RFY206(pSH18-34), pB42-AD fusions in EGY48, mated; LEU2 and lacZ reporters; induction medium -His/-Trp/-Ura/-Leu + X-Gal

binding: binds
B1: LEUNIG (protein, UniProt Q9FUY2 1-931)
chain: MSQTNWEADKMLDVYIHDYLVKRDLKATAQAFQAEGKVSSDPVAIDAPGGFLFEWWSVFWDIFIARTNEKHSEVAASYIETQMIKAREQQLQQSQHPQVSQQQQQQQQQQIQMQQLLLQRAQQQQQQQQQQHHHHQQQQQQQQQQQQQQQQQQQQHQNQPPSQQQQQQSTPQHQQQPTPQQQPQRRDGSHLANGSANGLVGNNSEPVMRQNPGSGSSLASKAYEERVKMPTQRESLDEAAMKRFGDNVGQLLDPSHASILKSAAASGQPAGQVLHSTSGGMSPQVQTRNQQLPGSAVDIKSEINPVLTPRTAVPEGSLIGIPGSNQGSNNLTLKGWPLTGFDQLRSGLLQQQKPFMQSQSFHQLNMLTPQHQQQLMLAQQNLNSQSVSEENRRLKMLLNNRSMTLGKDGLGSSVGDVLPNVGSSLQPGGSLLPRGDTDMLLKLKMALLQQQQQNQQQGGGNPPQPQPQPQPLNQLALTNPQPQSSNHSIHQQEKLGGGGSITMDGSISNSFRGNEQVLKNQSGRKRKQPVSSSGPANSSGTANTAGPSPSSAPSTPSTHTPGDVISMPNLPHSGGSSKSMMMFGTEGTGTLTSPSNQLADMDRFVEDGSLDDNVESFLSQEDGDQRDAVTRCMDVSKGFTFTEVNSVRASTTKVTCCHFSSDGKMLASAGHDKKAVLWYTDTMKPKTTLEEHTAMITDIRFSPSQLRLATSSFDKTVRVWDADNKGYSLRTFMGHSSMVTSLDFHPIKDDLICSCDNDNEIRYWSINNGSCTRVYKGGSTQIRFQPRVGKYLAASSANLVNVLDVETQAIRHSLQGHANPINSVCWDPSGDFLASVSEDMVKVWTLGTGSEGECVHELSCNGNKFQSCVFHPAYPSLLVIGCYQSLELWNMSENKTMTLPAHEGLITSLAVSTATGLVASASHDKLVKLWK
